Earlier results as cited in patent US8415285B2, “Composition for the prevention or removal of insoluble salt deposits” (Ecover Coordination Center N.V., priority 2010, dated 2013).
For at least one compound, name, drawing or mass did not settle the structure.

Design: key to the marks not given beside the values
Settings: descaling effectiveness, Purac data; symbols not defined; cited from earlier work

For `NS(=O)(=O)O` [sulfamic], the descaling is given as “++”.
